The record followed here is publication PMC6355029, “Structure of the DP1–DP2 PolD complex bound with DNA and its implications for the evolutionary history of DNA and RNA polymerases”.

Chains of the proteins cited; added tags and fusions are not shown. Chains listed by the source or under a name are the forms on record and can include a tag or linker.
PolD DP1 H451A (exonuclease-deficient small subunit) + PolD DP2 (large catalytic subunit), one chain, as listed by the source H451A, chain 1 of 3: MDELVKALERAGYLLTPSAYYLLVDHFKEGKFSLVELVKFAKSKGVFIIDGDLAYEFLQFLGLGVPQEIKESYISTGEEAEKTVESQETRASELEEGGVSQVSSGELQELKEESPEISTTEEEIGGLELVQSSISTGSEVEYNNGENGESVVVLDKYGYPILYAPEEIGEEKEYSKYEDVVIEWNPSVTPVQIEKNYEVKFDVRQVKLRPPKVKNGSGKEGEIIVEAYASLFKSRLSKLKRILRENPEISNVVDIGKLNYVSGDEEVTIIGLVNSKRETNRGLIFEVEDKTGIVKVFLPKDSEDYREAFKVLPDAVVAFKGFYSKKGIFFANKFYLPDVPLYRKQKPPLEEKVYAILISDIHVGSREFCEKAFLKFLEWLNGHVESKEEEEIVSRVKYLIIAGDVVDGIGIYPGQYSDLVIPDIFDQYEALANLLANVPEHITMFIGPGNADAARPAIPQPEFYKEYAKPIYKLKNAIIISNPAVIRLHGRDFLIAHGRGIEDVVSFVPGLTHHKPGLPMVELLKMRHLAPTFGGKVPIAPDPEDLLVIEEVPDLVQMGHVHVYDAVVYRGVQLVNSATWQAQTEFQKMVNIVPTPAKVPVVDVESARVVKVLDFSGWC

Construct, isoform or probe ends are uncertain for at least one entry. For some of these results: A weaker result is weaker than the reference pair of the same experiment. For some of these results: At least one verdict rests on a figure or table, not on a statement of the authors. For some of these results: The direction of at least one scale is not stated here.

For data set [1], the system named is DP2 (1-1061) (Pyrococcus abyssi). Description: fluorescence anisotropy. The following applies: up to 6 uM protein, Fluorescence anisotropy: 20 mM sodium succinate pH 6, 100 mM NaCl, 25 C, 5 nM HEX-DNA, PolD up to 600 nM, DP2(1-1061) up to 6 uM, recombinant protein. A general note: Polarisation of emitted light reports the rotation of a fluorescent probe.
In data set [2] the test system is PolD DP1 H451A (exonuclease-deficient small subunit) + PolD DP2 (large catalytic subunit). Description: fluorescence anisotropy. The following applies: Fluorescence anisotropy: 20 mM sodium succinate pH 6, 100 mM NaCl, 25 C, 5 nM HEX-DNA, PolD up to 600 nM, DP2(1-1061) up to 6 uM; recombinant protein; protein details: N-terminal 14xHis, TEV-cleaved; single-stranded DNA.

Turning to “CGCCGGGCCGAGCCGTGC / AGGTCGTGCACGGCTCGGCCCGGCG [HEX primer/template]”, the binding result in data set [1] is “binds more weakly”.
Regarding “CGCCGGGCCGAGCCGTGCACGACCT (double strand) [HEX dsDNA]”, the binding result in data set [1] is “binds more weakly”.
For the sequence “AGGTCGTGCACGGCTCGGCCCGGCG [HEX ssDNA (template strand)]”, the binding signal (fold weaker Kd than primer-template) in data set [2] came to 2.4. The binding result in data set [1] (single-stranded DNA) is listed as “binds more weakly”.
